# Experimental data: article doi:10.1101/2020.12.03.409912
# Chains of the proteins cited; added tags and fusions are not shown.
# UniProt Q61666: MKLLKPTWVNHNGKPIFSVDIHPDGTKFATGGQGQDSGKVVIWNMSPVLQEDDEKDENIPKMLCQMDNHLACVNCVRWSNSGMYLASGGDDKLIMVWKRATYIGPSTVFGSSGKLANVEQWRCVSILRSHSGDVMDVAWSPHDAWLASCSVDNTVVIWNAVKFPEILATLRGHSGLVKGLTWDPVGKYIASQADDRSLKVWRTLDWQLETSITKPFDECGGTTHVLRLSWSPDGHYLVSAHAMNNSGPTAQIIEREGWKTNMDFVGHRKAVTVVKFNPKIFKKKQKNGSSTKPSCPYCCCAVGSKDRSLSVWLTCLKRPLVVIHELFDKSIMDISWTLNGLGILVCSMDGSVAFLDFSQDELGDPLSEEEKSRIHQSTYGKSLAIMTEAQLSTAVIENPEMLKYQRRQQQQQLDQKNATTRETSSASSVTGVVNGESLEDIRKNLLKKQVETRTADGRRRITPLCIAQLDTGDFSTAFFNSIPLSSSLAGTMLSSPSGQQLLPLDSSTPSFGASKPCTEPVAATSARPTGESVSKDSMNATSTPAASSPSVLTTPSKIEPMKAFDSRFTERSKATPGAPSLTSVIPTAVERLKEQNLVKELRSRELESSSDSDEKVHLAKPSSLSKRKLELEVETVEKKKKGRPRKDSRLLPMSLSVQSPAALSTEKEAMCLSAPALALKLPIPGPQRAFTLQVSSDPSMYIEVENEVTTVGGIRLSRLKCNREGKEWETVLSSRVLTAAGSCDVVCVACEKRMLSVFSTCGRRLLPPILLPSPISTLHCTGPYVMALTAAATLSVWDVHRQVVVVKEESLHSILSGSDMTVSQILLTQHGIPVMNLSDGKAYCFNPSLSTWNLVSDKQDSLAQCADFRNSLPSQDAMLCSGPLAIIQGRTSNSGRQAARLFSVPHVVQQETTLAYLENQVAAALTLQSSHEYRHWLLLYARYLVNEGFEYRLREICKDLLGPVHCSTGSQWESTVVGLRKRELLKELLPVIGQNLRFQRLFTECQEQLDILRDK
# UniProt Q63943: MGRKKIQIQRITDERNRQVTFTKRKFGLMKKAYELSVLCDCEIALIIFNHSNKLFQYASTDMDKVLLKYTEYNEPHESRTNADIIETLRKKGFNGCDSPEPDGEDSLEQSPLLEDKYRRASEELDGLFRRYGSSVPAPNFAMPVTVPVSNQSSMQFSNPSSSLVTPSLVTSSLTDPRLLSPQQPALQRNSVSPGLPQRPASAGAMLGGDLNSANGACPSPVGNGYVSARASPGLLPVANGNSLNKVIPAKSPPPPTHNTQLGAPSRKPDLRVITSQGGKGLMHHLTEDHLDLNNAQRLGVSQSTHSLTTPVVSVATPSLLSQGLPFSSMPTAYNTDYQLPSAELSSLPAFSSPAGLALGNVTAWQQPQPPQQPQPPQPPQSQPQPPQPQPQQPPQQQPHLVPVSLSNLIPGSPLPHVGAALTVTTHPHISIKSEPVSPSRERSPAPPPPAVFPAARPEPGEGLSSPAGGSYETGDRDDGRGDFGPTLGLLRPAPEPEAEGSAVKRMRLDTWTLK
# Results are given in words; binding and its absence hold for the method and conditions named. In cells and extracts the contact can be indirect. Here binding means that the protein was enriched with, or labelled near, the bait; the list need not be complete.
# T1: UBN2-AVI, Q80WC1
# T1 chain: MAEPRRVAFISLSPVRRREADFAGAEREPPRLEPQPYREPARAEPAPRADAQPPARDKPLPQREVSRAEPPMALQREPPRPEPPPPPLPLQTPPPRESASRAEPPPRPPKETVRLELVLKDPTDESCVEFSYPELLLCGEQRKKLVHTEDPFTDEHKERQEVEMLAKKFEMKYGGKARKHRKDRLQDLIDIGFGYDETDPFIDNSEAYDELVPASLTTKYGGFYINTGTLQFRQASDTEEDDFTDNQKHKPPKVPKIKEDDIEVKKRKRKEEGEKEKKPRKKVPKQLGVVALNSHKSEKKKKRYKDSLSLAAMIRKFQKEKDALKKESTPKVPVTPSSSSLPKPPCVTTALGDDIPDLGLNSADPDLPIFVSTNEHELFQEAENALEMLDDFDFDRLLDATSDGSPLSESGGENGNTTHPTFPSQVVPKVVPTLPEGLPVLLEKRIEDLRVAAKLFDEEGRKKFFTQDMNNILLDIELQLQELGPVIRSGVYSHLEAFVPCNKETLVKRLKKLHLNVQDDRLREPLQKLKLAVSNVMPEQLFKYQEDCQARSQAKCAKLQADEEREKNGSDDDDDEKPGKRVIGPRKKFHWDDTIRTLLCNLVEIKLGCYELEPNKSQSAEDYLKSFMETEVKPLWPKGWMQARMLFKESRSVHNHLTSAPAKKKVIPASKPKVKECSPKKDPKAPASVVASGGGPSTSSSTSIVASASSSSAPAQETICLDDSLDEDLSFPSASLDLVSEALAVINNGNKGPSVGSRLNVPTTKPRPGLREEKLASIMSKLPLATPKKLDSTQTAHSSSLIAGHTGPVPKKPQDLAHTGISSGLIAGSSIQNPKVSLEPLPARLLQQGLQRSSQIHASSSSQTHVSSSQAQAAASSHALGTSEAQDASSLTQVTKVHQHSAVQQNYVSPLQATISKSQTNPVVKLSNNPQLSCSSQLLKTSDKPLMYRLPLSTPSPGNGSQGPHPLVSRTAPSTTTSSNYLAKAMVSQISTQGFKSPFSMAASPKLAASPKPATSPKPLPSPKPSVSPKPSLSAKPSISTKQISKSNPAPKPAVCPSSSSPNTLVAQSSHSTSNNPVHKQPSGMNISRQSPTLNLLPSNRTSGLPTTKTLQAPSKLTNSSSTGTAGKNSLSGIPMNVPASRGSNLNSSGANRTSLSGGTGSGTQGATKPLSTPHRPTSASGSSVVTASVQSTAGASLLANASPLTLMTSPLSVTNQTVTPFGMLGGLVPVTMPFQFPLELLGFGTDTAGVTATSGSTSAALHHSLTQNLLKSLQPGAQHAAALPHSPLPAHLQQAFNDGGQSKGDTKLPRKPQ
# B1: UBN1, Q4G0F8 1-1135 (protein)
# chain: MSEPHRVQFTSVPGSLNPAFLKKSRKEEVGGTEQHQDCEPAAAAVRITLTLFEPDHKRCPEFFYPELVKNIRGKVKGLHPGDKKKDVLDPFNDEEKERHKVEALARKFEEKYGGKKRRKDRIQDLIDMGYGYDESDSFIDNSEAYDELVPASLTTKYGGFYINSGTLQFRQASESEDDFIKEKKKKSPKKRKLKEGGEKIKKKKKDDTYDKEKKSKKSKFSKAGFTALNASKEKKKKKYSGSLSVREMLKKFQKEKEAQKKREEEHKPVAVSSIEAQGLRELEGTSDPLLSLFGSTSDNDLLQAATAMDSLTDLDLEQLLSESPEGSPFRDMDDGSDSLGVGLDQEFRQPSSFPEGLPIPLEKRVKELAQAARAAEGESKQKFFTQDINGILLDIEVQTRELTSQIRSGVFAYLASFLPCSKDALVKRARKLHLYEQGGRLKEPLQKLKDAIGRAMPEQVAKYQDECQAHTQAKVAKMLEEEKDKEQRERICSDEEEDEEKGGRRIMGPRKKFQWNDEIRELLCQVVKIKLESRDLERNSKAQAWEDCVKAFLDAEVKPLWPKGWMQARTLFKESRRGHGHLTSLLAKKKVIAPSKIKMKESSVKLDKKVSVPSGQHGGPTTLLSEHQGGGLNTGANSREHPSQATCGLTDSVSVTLEDSLDEDLVRNPASSVDAVSKELATLNSRAANSSEFTLPTPSKAPTEKVGGVLCTEEKRNFAKPSSSAPPPTNALQSPLNFLAEQALALGQSSQEKKPEGSGFKELSCQGPLSKGVPELHPSKAKHHNLPRTSHGPQAAAPVPGPQVKVFHAGTQQQKSFTPPSPFVNKLQGPKATSPQCHRSLLQLVKTAAKGQAFHATMPASSGSSPASSSSAHKTTASNSTTISHPAKLHPTSSVGPSYKNNPFAGSVSKHGASSSSPSPGGGAQVQSSVSGASLPGVQSPSAGQSASRAAPSSAVKKTPVTQKLTLVAPPGGPNGDSGGGTQGVAKLLTSSLKPAAVSSVTSSTSLPKGTGGAVLLSNTSSLSLLSSSYKSNNPKLPGAMNSNSLGIITQFPLHVLSFNADSSAKAGVSKDAIVTGPAPGTFHHGLSHSLLAGLHSSPPHTAPLPHAAVSTHVPQSLPDASQLHGKGPVVPRKL
# B2: ZNF639 (protein, UniProt Q99KZ6 1-485)
# chain: MNEYPKKRKRKTLHPSRYSDSSGISRIADGVSGIFSDHCYSVCSMRQPDLKYFDNKDDDSDPETANDLPKFADGTKARNRNQSYLVPSPVLRILDHTVFSTEKSTEVEICDEECASPESVHQHTQEESPIEVHTSEDVPIAVEVHAISEDYDIEAENNSSESLQDQADEEPPAKLCKILDKGQALNVTAQQKWPLLRANSSGLYKCELCEFNSKYFSDLKQHVILKHKRTDSNVCRVCKESFSTNMLLIEHAKLHEEDPYICKYCDYKTVIFENLSQHIADTHFSDHLYWCEQCDVQFSSSSELYLHFQEHSRDEQYLCQFCEHETGDPEDLHSHVVNEHARRLIELSDKCGSGGHGQCSLLSKITFDKCKNFFVCQVCGFRSRLHTNVNRHVAIEHTKIFPHVCDDCGKGFSSMLEYCKHLNSHLSEGIYLCQYCEYSTGQIDDLKIHLDFKHSADLPHKCSECLMRFGNERDLLGHLQVHETT
# Assays:
# Experiment in all cases: affinity purification with mass spectrometry
# UBN2-AVI = UBN2-AVI (UniProt Q80WC1)
# UBN1-AVI = UBN1-AVI (UniProt Q4G0F8)
# UBN2-AVI, Q80WC1 = biological target: T1, UBN2-AVI, Q80WC1; settings: remark: other sources report otherwise
Molecule,binding (UBN2-AVI),further results
HIRA (from UniProt Q61666 1-1015),binds,
MEF2D (from UniProt Q63943 1-514),,binding (UBN1-AVI): binds
B1,,"binding (UBN2-AVI, Q80WC1): binds"
B2,binds,
